Laboratory results reported in PMC6708219.
These are yes or no findings as the source states them, for the method shown. Binding seen in cells or lysates may run through a third protein. Some entries that bind do so weakly or less than the wild type.

Sequences of proteins named here, by UniProt entry; tags and fusion partners are left off. A change or cut given only in a name is not applied to a line headed by its entry. Residues count along the entry.
UniProt O14763, residues 56-440: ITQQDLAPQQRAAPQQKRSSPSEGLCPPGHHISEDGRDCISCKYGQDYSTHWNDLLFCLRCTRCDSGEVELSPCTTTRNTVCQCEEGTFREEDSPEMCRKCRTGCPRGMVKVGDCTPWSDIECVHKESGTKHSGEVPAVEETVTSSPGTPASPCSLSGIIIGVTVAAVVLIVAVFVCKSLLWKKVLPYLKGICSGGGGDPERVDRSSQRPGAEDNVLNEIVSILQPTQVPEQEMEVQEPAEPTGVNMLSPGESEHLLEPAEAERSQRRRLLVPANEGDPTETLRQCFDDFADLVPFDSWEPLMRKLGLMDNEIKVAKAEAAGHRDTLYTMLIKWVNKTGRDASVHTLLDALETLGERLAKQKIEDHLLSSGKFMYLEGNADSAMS
UniProt Q13158: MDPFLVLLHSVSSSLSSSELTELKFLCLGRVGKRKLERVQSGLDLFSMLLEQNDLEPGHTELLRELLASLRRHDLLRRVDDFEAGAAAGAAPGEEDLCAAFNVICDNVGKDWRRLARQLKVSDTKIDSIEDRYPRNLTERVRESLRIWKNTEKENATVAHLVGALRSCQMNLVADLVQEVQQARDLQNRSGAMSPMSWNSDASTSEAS
UniProt Q14790: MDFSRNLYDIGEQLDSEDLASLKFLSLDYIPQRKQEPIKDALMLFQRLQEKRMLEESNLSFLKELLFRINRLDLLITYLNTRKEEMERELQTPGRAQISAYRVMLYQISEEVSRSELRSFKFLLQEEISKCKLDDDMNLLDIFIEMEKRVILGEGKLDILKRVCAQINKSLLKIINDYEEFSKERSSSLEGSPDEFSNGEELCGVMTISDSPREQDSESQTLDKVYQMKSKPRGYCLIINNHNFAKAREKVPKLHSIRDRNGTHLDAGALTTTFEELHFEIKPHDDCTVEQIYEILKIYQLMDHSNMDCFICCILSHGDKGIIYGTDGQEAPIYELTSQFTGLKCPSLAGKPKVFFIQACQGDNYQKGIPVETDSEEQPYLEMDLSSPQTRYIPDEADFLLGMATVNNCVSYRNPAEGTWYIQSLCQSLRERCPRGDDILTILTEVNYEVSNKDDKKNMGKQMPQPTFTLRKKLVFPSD

How the values were obtained:
[1] = molecular target: TRAIL-R2/DR5 (human (endogenous in BxPC3)) (UniProt O14763); assay: co-IP; as a5 (DR5 precipitation with D4E7 beads), untreated BxPC3 cells; compared with control IgG
[2] = molecular target: TRAIL-R2/DR5 (human (endogenous in BxPC3)) (UniProt O14763); assay: co-IP; BxPC3 cells incubated with 9F7-F11 (24 h to 120 h); 2 mg lysate precipitated overnight at 4 C with Dynabeads cross-linked with anti-DR5 antibody D4E7, ten washes in CHAPS buffer; western blot for caspase-8 and FADD

Substance | binding [1] | binding [2]
Fas-associated protein with death domain (FADD) (from UniProt Q13158 1-208) | binds weakly | binds
caspase-8 p18 cleavage fragment (from UniProt Q14790 217-374) (domain or fragment) | – | binds
pro-caspase 8 (from UniProt Q14790 1-479) (enzyme) | binds weakly | –
